Earlier results as cited in US20180370891A1, “CURCUMIN COMPOSITIONS FOR IMPROVEMENT IN CARDIOVASCULAR FLOW” (OMNIACTIVE HEALTH TECHNOLOGIES LIMITED, priority 2015, published 2018).
For at least one compound, name, drawing or mass did not settle the structure.

Key:
[1] = tested on: 2K-1C hypertension-induced male rats; conditions: 50 or 100 mg/kg/day, 6 weeks of treatment
[2] = tested on: Thoracic aortic rings; conditions: rings preconstricted with phenylephrine, relaxation by acetylcholine
[3] = tested on: postmenopausal women; conditions: curcumin ingestion, postmenopausal women with 2-4% baseline FMD
[4] = tested on: burn injury progression; conditions: intravenous therapy

COc1cc(/C=C/C(=O)CC(=O)/C=C/c2ccc(O)c(OC)c2)ccc1O [curcumin, 1,7%-bis(4-hydroxy-3-methoxyphenyl)-1,6-heptadien-3,5-dione]
plasma angiotensin converting enzyme level [1]: reduction
blood pressure ([1]; P<0.05): reducing
hindlimb blood flow ([1]; P<0.05): increasing
hindlimb vascular resistance ([1]; P<0.05): decreasing
high glucose induced acute endothelium dependent vascular dysfunction [2]: alleviate
FMD values [3]: increased significantly
burn injury progression [4]: impede
